According to PubChem BioAssay AID504850 (National Center for Advancing Translational Sciences (NCATS), 2011):
About 1,200 (52%) of roughly 2,300 compounds were called active. The set was probably picked from earlier hits. This list was built around the results that the source calls inconclusive (neither active nor inactive); the mix of calls is not that of the screen. Calls follow the shape of the dose curve; as a rule, active = well fitted inhibition curve with a large enough effect; inconclusive = small, poorly fitted or top-dose-only effect, or effect the other way; inactive = no such curve, though single readings can be large or run the other way. Potencies of inconclusive entries are doubtful fits and often do not repeat.

Experiment: Confirmation screen for delayed death inhibitors of the malarial parasite plastid, 48 hour incubation; also: nearly all actives have a fitted effect of over 65% in size
Conditions: P. falciparum-infected erythrocytes, luciferase growth; series mostly up to 28.7 µM
Method in brief: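 Single-generation (48 h, 37 C) exposure of integrated firefly luciferase-reporter P. falciparum in red cells, 0.1% parasitemia at 2% hematocrit, Albumax-supplemented RPMI. Falling luciferase signal marks parasite growth inhibition.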
Potency is read from the fitted curve at half-maximal effect.

Structure (SMILES)	Potency
C[C@@H](NC(=O)c1nc[nH]c1C(=O)N1CCN(C(=O)OC(C)(C)C)CC1)c1ccccc1	inconclusive: 17.8 µM [inhibitor, single point]
CCC(=O)NCCc1cc2ccc(C)cc2[nH]c1=O	inactive
C=CCNC(=O)CC(=O)N/N=C/c1ccccc1F	inconclusive: 0.158 µM [activator, full curve, poor fit]
COc1ccc(C(=O)/C=C/c2ccc(OC)c(O)c2)c(F)c1	inconclusive: 0.0501 µM [activator, full curve, poor fit]
COc1cc(-c2ccc(Nc3ccccc3C(=O)O)c(OC)c2)ccc1Nc1ccccc1C(=O)O	active: 12.6 µM
CCOc1ccccc1NC(=O)COc1coc(CN2CCc3ccccc3C2)cc1=O	inconclusive: 11.2 µM [inhibitor, partial curve]
CC(=O)N1/C(=C/c2ccc(N(C)C)cc2)C(=O)c2ccccc21	inconclusive: 15.8 µM [inhibitor, partial curve, poor fit]
Nc1ccc(C(=O)OCCCc2nc3cc4ccccc4cc3[nH]2)cc1	inconclusive: 14.1 µM [inhibitor, single point]
C=CCNC(=O)c1onc(CSc2ccc(C)c(C)c2)c1C(=O)O	inactive
O=C1CSC(c2cccnc2)N1CCc1ccccn1 (centres undefined)	inactive
CCN(CC(=O)NCc1ccc(Cl)cc1)C(=O)c1ccc(S(=O)(=O)NCc2ccco2)cc1	inconclusive: 14.1 µM [inhibitor, partial curve, poor fit]
CN1C(=O)c2ccccc2N(C)C1c1cccc(O)c1 (centres undefined)	inconclusive: 14.1 µM [inhibitor, single point]
Cc1cc(=O)n2nc(N3CCC(C(=O)NCc4ccc(F)cc4)CC3)sc2n1	inconclusive: 11.2 µM [inhibitor, partial curve]
Cc1ccc2c(c1)cc(C(=O)NCc1ccccc1)n2C	inactive
CC(=O)/C(C#N)=C1\NC(=O)C(Cc2cc(Cl)ccc2Cl)S1 (centres undefined)	active: 14.1 µM
COC(=O)c1c(C)[nH]c(C(=O)C(C)OC(=O)c2c(C)noc2C)c1C (centres undefined)	inconclusive: 12.6 µM [inhibitor, partial curve, poor fit]
O=C(N/N=C/c1cccn1-c1ccc([N+](=O)[O-])cc1)c1cccnc1	active: 10 µM
Cc1cccc(C)c1OCCn1nc(C(=O)O)c2ccccc2c1=O	inconclusive: 22.4 µM [inhibitor, single point]
COc1ccc(S(=O)(=O)N/N=C(/C)c2ccco2)cc1	inactive
COc1ccc(C(=O)NCC(=O)N/N=C(C)\C=C\c2ccccc2)cc1OC	inactive
O=C(O)c1ccc(/C=N/NC(=O)c2ccc3c(c2)OCCO3)cc1	inactive
CCOc1ccc(-n2c(C)c(C(=O)O)c3cc(OC)ccc32)cc1	inconclusive: 15.8 µM [inhibitor, single point]
CCOC(=O)C1=C(NC(=S)NC(=O)c2ccccc2)c2ccccc2CC1C(C)C (centres undefined)	inconclusive: 15.8 µM [inhibitor, single point]
Cc1cc(OCCN2CCN(S(=O)(=O)c3ccccc3F)CC2)ccc1C(C)C	inactive
C=C1C(=O)[C@@]23[C@H](O)C[C@@H]4C(C)(C)CC[C@H](O)[C@]4(C)[C@@H]2C[C@H](O)[C@@H]1[C@H]3O	inconclusive: 15.8 µM [inhibitor, single point]
O=C(Cc1cccs1)NCCc1ccc(Cl)cc1	active: 4.47 µM
O=C(CN1C(=O)/C(=C/c2ccco2)SC1=S)Nc1ccc(O)c(C(=O)O)c1	inconclusive: 11.2 µM [inhibitor, partial curve, poor fit]
O=C(Nc1ccccc1F)c1ccc(CN2CCN(c3ccccc3)CC2)cc1	inactive
COc1ccccc1N1CCN(C(=O)c2noc(C(C)C)c2[N+](=O)[O-])CC1	active: 10 µM

Looked up by compound from the entries so far:
Structure (SMILES)	Potency
O=C(Nc1ccccc1F)c1ccc(CN2CCN(c3ccccc3)CC2)cc1	inactive
COc1ccccc1N1CCN(C(=O)c2noc(C(C)C)c2[N+](=O)[O-])CC1	active: 10 µM
